Assay results reported in the supplement of paper PMC10849652.
The other results are listed elsewhere or left out.

Chains of the proteins cited; added tags and fusions are not shown. Lines headed by an entry give the natural chain unless they say otherwise; changes in a name come on top.
UniProt Q9BXI6: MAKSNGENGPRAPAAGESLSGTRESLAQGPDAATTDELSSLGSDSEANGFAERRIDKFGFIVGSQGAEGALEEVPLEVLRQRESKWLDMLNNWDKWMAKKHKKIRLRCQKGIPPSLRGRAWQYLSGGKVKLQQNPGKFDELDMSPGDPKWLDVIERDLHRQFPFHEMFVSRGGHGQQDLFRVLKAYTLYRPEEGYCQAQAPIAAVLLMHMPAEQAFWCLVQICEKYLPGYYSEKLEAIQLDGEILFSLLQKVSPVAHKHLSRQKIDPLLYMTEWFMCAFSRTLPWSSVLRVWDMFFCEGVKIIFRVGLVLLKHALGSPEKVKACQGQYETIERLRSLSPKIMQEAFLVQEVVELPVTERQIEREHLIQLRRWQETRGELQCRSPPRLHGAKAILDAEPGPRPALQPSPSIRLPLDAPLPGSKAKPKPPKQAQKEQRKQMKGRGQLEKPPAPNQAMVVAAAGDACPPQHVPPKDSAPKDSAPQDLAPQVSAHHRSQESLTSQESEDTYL
UniProt P37837: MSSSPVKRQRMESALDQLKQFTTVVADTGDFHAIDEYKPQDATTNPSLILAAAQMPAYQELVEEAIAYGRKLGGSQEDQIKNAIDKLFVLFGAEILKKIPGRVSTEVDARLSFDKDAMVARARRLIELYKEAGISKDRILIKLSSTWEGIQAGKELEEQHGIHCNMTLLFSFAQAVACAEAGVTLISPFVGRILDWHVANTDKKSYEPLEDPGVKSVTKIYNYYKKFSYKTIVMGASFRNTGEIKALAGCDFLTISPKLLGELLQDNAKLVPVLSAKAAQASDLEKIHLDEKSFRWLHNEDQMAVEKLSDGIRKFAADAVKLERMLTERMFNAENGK
UniProt Q9NUW8, whole entry, looked up: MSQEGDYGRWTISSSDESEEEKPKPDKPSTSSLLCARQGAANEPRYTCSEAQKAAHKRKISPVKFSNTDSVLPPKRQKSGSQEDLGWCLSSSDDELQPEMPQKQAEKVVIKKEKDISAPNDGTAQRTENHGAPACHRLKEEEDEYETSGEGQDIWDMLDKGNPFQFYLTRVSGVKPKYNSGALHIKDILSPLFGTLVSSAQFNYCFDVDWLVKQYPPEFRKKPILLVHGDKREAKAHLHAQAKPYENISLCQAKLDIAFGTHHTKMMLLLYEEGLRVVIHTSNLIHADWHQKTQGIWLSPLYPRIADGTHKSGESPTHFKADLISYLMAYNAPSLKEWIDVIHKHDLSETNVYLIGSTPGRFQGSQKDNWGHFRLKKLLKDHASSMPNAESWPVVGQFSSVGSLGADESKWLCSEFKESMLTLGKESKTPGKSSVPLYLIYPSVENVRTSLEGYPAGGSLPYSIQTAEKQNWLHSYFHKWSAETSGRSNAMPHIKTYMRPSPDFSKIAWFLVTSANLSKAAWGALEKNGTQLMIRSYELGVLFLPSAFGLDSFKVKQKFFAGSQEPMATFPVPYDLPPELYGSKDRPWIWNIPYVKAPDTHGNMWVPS
UniProt Q5JUR7: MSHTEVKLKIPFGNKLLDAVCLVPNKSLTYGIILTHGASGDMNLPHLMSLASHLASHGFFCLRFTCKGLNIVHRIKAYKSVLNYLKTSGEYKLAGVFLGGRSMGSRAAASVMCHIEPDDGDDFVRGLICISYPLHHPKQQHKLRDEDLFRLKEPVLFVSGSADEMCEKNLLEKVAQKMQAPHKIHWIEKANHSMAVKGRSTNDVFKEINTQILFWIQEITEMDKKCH
UniProt Q15633: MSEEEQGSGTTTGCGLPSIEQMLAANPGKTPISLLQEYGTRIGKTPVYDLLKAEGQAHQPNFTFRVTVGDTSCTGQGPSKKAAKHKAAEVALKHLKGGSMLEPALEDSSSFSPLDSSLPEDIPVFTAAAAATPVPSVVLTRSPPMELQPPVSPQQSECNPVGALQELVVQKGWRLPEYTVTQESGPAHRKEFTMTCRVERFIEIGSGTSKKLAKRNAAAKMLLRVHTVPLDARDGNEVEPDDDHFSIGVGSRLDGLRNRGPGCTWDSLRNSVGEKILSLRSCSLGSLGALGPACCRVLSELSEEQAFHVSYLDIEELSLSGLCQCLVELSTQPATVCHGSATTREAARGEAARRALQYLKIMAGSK
UniProt Q969Z0: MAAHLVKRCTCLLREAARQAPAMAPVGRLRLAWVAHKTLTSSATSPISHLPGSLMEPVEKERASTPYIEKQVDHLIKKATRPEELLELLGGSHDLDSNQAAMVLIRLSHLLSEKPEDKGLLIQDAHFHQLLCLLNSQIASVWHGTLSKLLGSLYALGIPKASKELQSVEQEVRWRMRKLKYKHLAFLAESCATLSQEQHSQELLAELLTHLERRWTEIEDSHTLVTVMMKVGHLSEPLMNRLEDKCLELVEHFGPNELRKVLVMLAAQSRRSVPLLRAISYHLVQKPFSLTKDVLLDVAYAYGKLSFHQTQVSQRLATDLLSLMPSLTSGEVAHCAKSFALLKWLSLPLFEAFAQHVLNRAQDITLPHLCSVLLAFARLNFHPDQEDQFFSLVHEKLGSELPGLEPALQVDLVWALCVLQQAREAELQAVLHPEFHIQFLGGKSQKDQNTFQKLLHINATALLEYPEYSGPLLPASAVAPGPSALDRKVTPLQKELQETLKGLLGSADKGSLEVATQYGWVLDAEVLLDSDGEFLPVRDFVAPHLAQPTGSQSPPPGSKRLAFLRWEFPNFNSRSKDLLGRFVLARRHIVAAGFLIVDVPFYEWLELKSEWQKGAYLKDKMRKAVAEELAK
UniProt Q6NXT6: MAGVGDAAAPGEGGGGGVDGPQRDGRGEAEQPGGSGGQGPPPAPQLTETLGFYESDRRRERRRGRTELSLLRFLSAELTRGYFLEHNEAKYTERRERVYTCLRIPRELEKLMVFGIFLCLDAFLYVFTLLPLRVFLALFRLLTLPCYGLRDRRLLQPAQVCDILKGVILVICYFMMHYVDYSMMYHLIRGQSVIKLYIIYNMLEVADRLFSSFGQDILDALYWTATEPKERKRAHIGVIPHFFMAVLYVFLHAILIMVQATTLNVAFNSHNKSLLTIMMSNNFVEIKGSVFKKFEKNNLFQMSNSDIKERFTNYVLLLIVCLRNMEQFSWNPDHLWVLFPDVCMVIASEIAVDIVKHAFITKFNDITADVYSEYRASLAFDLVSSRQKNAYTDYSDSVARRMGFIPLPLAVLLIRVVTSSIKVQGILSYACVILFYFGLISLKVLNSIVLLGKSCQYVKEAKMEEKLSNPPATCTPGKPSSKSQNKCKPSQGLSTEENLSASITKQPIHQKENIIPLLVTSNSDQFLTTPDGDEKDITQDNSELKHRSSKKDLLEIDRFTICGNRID
UniProt Q66K14, whole entry, looked up: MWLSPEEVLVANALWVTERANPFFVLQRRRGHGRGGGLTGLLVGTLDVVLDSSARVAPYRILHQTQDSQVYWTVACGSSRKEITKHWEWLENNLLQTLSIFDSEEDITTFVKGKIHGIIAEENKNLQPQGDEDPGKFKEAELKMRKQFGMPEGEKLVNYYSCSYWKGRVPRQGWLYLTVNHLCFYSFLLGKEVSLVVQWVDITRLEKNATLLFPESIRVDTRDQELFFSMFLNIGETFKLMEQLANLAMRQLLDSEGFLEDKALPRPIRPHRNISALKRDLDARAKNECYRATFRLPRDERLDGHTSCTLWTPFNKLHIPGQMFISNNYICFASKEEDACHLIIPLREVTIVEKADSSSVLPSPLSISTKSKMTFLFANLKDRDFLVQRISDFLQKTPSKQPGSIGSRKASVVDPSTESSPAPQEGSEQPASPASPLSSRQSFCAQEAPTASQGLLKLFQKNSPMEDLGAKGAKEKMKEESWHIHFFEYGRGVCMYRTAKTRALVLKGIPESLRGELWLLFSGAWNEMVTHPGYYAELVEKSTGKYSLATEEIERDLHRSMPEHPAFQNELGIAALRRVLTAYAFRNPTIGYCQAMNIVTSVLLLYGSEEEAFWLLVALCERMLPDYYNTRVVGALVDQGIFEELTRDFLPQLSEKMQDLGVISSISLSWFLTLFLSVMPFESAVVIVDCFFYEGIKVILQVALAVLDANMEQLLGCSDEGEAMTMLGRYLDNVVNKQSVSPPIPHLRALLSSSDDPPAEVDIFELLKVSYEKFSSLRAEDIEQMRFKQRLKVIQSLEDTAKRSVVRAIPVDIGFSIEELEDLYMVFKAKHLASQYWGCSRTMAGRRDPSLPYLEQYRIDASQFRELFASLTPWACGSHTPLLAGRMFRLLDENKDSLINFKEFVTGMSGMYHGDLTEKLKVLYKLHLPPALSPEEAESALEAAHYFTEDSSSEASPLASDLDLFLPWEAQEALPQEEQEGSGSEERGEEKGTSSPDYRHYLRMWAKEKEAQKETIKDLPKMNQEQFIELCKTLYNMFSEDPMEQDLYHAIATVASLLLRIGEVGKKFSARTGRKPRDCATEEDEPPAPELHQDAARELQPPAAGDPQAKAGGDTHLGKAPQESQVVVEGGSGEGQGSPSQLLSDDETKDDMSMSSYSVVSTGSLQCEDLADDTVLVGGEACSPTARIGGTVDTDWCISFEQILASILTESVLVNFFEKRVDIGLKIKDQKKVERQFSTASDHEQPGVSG
UniProt Q9UP52: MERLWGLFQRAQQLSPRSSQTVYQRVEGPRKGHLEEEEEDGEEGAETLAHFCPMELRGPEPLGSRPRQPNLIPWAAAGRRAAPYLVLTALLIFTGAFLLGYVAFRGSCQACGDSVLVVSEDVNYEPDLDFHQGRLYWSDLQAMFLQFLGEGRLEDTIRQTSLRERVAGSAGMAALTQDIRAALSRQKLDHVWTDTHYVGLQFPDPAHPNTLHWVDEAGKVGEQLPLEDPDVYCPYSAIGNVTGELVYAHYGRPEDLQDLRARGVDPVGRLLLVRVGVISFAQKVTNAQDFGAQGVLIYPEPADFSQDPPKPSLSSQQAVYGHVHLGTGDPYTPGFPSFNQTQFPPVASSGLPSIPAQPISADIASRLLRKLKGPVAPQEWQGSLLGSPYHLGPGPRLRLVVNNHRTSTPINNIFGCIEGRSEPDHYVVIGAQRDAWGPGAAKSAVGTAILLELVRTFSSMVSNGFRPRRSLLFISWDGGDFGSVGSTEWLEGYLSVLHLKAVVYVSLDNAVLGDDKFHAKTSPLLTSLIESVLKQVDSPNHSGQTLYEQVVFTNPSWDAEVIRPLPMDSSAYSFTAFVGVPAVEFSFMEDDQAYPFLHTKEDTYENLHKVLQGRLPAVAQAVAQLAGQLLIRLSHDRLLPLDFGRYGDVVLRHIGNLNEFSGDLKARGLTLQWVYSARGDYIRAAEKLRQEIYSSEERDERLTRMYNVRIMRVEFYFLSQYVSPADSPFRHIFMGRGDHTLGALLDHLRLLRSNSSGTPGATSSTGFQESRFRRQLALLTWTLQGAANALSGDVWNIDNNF
UniProt Q15814: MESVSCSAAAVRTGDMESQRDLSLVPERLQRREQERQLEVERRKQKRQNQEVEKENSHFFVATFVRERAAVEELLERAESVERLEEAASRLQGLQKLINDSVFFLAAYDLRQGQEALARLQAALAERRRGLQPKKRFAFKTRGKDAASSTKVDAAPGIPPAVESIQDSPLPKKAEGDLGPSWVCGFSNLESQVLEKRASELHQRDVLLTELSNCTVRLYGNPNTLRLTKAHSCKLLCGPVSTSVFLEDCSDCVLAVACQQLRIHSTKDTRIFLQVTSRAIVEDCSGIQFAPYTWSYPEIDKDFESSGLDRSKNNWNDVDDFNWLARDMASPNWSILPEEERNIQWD
UniProt Q9NYB0: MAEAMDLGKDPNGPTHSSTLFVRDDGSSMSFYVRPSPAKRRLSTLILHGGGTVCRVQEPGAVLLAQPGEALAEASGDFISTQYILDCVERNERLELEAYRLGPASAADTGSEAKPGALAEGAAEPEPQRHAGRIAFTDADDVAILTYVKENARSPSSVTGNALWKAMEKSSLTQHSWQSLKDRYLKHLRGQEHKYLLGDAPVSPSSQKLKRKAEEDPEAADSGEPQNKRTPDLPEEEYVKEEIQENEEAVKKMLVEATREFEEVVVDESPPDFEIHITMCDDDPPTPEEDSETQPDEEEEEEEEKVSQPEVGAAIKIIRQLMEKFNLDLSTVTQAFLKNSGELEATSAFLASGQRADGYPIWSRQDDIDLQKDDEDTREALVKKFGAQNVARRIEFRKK
UniProt Q96BW9: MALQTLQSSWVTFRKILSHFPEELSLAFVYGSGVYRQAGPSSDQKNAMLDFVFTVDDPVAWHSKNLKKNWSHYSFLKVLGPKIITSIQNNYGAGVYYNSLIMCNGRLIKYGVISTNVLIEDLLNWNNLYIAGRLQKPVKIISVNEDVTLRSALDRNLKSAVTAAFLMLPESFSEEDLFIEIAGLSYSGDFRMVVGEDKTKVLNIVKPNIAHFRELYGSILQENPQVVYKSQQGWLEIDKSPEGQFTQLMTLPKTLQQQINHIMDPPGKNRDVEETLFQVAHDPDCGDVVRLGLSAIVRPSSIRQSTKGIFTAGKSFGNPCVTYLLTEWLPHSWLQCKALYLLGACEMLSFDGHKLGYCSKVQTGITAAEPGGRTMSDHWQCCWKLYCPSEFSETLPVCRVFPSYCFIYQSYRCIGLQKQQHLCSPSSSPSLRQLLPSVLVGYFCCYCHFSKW
UniProt O75347: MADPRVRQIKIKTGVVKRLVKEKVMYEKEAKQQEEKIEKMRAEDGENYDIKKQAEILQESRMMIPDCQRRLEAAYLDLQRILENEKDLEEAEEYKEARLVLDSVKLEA

compound: CC(C)(O)CC(=O)NCCn1ccc2ncnc(Nc3ccc(Oc4cccc(C(F)(F)F)c4)c(Cl)c3)c21; assay: log2 fold change, soluble protein after heating vs DMSO (PISA); higher = thermal stabilisation; K562 lysate, 10 uM; active = over 0.2 and 3.5 SD of the protein, either way, in both replicates (recomputed)
How it was run: (§1)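 Thermal stability, expressed as log-two fold change relative to solvent controls, is given from duplicates. Crude K562 extract in PBS pH 7.4 with 1 mM MgCl2, at 1 mg/mL protein, was treated with 10 μM compound for 30 min and heated in aliquots for 3 min across 48°C-58°C. After pooling, adjustment to 0.5% NP-40 at 4°C and centrifugation at 21,000xg for 90 min, supernatant protein was measured by TMTpro 16plex LC-MS/MS with channel sums equalised.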

log2 fold change, inactive:
TBL1XR1 (UniProt Q9BZK7) -0.064, TBC1D22B (UniProt Q9NU19) -0.009, TF (UniProt P02787) -0.059, TCAF2 (UniProt A6NFQ2) -0.017, TBC1D22A (UniProt Q8WUA7) 0.001, TEX10 (UniProt Q9NXF1) -0.151, TBC1D10A (UniProt Q9BXI6) -0.045, TALDO1 (UniProt P37837) 0.038, TDP1 (UniProt Q9NUW8) -0.012, TEX30 (UniProt Q5JUR7) -0.053, TCEA1 (UniProt P23193) 0.023, TFAM (UniProt Q00059) 0.01, TARBP2 (UniProt Q15633) -0.042, TCP1 (UniProt P17987) 0.003, TAL1 (UniProt P17542) -0.049, TBRG4 (UniProt Q969Z0) -0.023, TBC1D15 isoform 3 (UniProt Q8TC07) -0.01, TDRD3 isoform 3 (UniProt Q9H7E2) 0.01, TAPT1 (UniProt Q6NXT6) -0.07, TFDP1 (UniProt Q14186) -0.044, TAF6L (UniProt Q9Y6J9) -0.078, TBC1D9B isoform 2 (UniProt Q66K14) -0.15, TFR2 (UniProt Q9UP52) -0.025, TBCC (UniProt Q15814) -0.061, TFDP2 (UniProt Q14188) -0.111, TERF2IP (UniProt Q9NYB0) -0.049, TAMM41 isoform 3 (UniProt Q96BW9) -0.025, TBC1D17 (UniProt Q9HA65) -0.065, TARS1 (UniProt P26639) 0.033, TBCA (UniProt O75347) 0.035

compound: CC(C)C1=C2N=C(C=C(N2N=C1)NCC3=CC=CC=C3)NCCCCCCN; assay: as above
How it was run: as §1

log2 fold change, inactive:
TBL1XR1 (UniProt Q9BZK7) 0.005, TBC1D22B (UniProt Q9NU19) -0.067, TF (UniProt P02787) 0.063, TCAF2 (UniProt A6NFQ2) 0.013, TBC1D22A (UniProt Q8WUA7) 0.03, TEX10 (UniProt Q9NXF1) -0.03, TBC1D10A (UniProt Q9BXI6) -0.04, TALDO1 (UniProt P37837) -0.006, TDP1 (UniProt Q9NUW8) -0.031, TEX30 (UniProt Q5JUR7) -0.045, TCEA1 (UniProt P23193) -0.024, TFAM (UniProt Q00059) 0.002, TARBP2 (UniProt Q15633) 0.013, TCP1 (UniProt P17987) -0.006, TAL1 (UniProt P17542) -0.013, TBRG4 (UniProt Q969Z0) -0.011, TBC1D15 isoform 3 (UniProt Q8TC07) -0.002, TDRD3 isoform 3 (UniProt Q9H7E2) -0.018, TAPT1 (UniProt Q6NXT6) 0.004, TFDP1 (UniProt Q14186) 0.115, TAF6L (UniProt Q9Y6J9) 0.01, TBC1D9B isoform 2 (UniProt Q66K14) 0.063, TFR2 (UniProt Q9UP52) -0.038, TBCC (UniProt Q15814) -0.009, TFDP2 (UniProt Q14188) -0.005, TERF2IP (UniProt Q9NYB0) -0.047, TAMM41 isoform 3 (UniProt Q96BW9) -0.075, TBC1D17 (UniProt Q9HA65) 0.015, TARS1 (UniProt P26639) -0.011, TBCA (UniProt O75347) -0.042
